# Where a chain is given by its changes, count along the chain named. These are yes or no findings as the source states them, for the method shown. Binding seen in cells or lysates may run through a third protein. Some entries that bind do so weakly or less than the wild type. Tags and fused reporters may be left off the sequences shown.
# The chains behind the UniProt entries cited, without tags or fusion partners.
# UniProt P62491: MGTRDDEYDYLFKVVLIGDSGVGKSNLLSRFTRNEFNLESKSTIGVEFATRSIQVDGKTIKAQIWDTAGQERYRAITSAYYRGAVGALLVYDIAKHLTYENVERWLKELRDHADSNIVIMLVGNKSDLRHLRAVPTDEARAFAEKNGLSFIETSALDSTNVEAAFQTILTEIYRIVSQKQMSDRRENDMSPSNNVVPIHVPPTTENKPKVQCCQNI
# Legend:
# [1] = biological target: T1, Myc-tagged WDR44 H839R (human) (UniProt Q5JSH3); assay: co-IP; GFP-RAB11A and Myc-WDR44 wild-type or variant coexpressed in 293T for 48 h; Myc-tagged proteins immunoprecipitated from lysate (150 mM NaCl, 20 mM Tris HCl pH 8.0, 10% glycerol, 1% Triton X-100; Protein G Sepharose), blots probed for GFP and Myc; also done after 3 h and 24 h serum starvation (wild-type, G782C, S764F)
# T1 sequence: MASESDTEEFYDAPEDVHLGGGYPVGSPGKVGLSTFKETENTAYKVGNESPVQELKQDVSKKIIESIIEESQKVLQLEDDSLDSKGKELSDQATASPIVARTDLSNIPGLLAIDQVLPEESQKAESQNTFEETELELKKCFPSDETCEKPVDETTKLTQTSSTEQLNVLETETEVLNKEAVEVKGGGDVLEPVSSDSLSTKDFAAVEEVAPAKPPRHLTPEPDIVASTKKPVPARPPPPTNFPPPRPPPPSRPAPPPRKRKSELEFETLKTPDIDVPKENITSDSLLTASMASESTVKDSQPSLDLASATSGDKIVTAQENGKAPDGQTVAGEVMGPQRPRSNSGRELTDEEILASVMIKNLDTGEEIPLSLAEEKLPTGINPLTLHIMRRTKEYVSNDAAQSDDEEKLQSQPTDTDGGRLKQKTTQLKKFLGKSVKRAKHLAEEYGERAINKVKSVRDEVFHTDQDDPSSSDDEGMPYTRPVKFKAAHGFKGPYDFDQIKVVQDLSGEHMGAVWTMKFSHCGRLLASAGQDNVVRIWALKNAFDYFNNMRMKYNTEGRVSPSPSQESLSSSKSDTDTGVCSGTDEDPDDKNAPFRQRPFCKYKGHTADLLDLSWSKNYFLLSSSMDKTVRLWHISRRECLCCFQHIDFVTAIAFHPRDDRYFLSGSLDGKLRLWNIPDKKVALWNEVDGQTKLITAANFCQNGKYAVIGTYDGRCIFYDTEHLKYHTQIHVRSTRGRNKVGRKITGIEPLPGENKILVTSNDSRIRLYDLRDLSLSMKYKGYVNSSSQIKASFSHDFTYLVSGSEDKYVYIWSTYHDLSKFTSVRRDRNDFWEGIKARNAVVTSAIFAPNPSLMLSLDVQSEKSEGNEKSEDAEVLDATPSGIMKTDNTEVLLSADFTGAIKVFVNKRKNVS
# [2] = biological target: T2, Myc-tagged WDR44 wild-type (human) (UniProt Q5JSH3); assay: as above
# T2 sequence: T1 sequence with R839H
substance,measurement,setting,value
GFP-tagged RAB11A (from UniProt P62491 1-216),binding,[1],binds
same,binding,[2],binds
